Library screen at single concentrations

Chains of the proteins cited; added tags and fusions are not shown. Residues count along the entry.
UniProt A4I591, 1-473: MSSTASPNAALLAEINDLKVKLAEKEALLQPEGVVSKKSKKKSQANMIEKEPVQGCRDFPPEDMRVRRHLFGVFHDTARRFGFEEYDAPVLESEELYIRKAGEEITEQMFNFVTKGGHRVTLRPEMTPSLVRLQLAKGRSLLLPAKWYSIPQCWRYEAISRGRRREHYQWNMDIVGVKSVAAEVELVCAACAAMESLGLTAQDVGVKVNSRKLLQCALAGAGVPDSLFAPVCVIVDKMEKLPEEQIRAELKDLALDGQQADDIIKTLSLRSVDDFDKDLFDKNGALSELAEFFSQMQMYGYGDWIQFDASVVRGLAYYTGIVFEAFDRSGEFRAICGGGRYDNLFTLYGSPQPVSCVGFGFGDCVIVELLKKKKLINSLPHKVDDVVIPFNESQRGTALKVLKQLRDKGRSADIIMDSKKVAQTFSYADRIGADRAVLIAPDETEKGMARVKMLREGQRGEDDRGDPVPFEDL
UniProt I6X8D2, whole entry: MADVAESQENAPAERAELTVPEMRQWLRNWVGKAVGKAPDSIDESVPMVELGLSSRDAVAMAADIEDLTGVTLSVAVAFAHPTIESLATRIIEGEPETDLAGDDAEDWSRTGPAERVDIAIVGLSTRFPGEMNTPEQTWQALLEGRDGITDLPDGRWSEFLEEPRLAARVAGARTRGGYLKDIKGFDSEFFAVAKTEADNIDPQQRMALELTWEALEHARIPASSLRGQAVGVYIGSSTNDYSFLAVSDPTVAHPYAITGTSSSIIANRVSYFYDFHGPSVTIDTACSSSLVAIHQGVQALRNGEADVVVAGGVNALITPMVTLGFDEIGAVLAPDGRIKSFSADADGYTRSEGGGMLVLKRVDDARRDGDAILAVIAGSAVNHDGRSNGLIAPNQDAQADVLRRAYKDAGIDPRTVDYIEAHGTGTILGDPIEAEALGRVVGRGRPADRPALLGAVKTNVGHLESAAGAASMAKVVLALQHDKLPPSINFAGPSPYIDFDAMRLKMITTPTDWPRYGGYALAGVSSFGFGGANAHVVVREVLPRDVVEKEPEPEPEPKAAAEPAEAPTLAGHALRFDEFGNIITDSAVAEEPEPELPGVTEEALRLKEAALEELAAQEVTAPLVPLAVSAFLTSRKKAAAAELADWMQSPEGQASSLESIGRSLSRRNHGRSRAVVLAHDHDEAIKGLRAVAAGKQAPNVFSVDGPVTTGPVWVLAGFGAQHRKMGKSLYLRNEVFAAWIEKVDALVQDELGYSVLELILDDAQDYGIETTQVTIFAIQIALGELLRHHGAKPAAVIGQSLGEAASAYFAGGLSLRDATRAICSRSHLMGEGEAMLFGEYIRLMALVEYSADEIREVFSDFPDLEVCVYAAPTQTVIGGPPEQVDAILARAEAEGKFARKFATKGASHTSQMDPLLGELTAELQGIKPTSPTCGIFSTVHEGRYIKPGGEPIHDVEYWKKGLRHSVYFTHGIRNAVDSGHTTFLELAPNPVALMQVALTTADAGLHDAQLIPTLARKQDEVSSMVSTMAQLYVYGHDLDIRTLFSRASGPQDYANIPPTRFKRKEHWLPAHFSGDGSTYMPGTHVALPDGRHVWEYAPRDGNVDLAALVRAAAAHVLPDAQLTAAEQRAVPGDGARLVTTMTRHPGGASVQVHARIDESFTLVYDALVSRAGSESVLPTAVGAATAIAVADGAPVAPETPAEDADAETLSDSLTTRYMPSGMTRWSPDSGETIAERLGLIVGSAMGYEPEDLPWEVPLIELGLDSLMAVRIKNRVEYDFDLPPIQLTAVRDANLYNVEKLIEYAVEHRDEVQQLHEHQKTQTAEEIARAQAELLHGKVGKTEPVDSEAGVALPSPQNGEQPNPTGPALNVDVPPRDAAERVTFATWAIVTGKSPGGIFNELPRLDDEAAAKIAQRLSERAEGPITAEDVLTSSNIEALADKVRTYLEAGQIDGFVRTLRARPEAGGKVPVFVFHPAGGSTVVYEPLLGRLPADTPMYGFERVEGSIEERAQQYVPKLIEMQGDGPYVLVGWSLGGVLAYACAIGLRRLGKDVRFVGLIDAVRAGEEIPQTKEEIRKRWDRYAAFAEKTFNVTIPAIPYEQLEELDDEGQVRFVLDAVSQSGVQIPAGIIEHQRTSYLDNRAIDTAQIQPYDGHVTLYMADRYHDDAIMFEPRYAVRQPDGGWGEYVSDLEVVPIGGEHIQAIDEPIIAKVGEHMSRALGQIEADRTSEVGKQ

LiHisRS: 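Histidine-tRNA ligase, Leishmania infantum (UniProt A4I591). Enzyme assay of histidyl-tRNA synthetase; the read-out is not stated. Concentration: 30 µM. The record gives no direction; compounds that gave an IC50 in retests scored well above the rest, so higher reads as stronger inhibition. The assay is labelled LdHisRS but filed under L. infantum. Size under these conditions: about 69,000 compounds, about 410 of them at 50% or above in at least one test.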
Pks13 thioesterase: 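Polyketide synthase Pks13, Mycobacterium tuberculosis (UniProt I6X8D2). Enzyme assay of the thioesterase domain of polyketide synthase 13; the read-out is not stated. Compounds at 30 µM. The record gives no direction; the compounds picked for IC50 retests had high values, so higher reads as stronger inhibition. Of about 67,000 compounds tested this way, about 300 (0.46%) reached 50% or more in at least one test.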

Results are given as percent effect.
The controls that fix the scale are not given in the record; negative values are as filed.
The compounds are a random part of those screened.
A dash means the value is not listed here; it may have been measured.

structure | LiHisRS | Pks13 thioesterase
CN(C)C1CCCN(C(=O)NCCNC(=O)C2CCCC2)C1 (configuration not stated) | 19.18% | -14.01%
Cc1cc(C(F)(F)F)nn1CCCNC(=O)C1CCN(S(C)(=O)=O)CC1 | 3.371% | 4.929%
CNC(=O)NC(=O)CCSCc1cc(F)cc2cccnc12 | 22.89% | 14.09%
CCSc1ccccc1C(=O)N1CC2(COC(C)(C)OC2)C1 | 12.17% | -36.44%
Cc1cccc(C)c1NC(=O)CC(CN1CCN(C)CC1)C(=O)O (configuration not stated) | 14.29% | 2.308%
CCN(CCO)C(=O)c1cc(Cn2c(C)nc3ccccc32)[nH]n1 | 15.38% | -25.03%
NC(=O)CN1CCC(c2cccc(Oc3ccccc3)n2)CC1 | 8.511% | -4.759%
Cc1ccc(CNc2ccccc2SCCC(N)=O)s1 | 19.75% | -
CCOc1c(Cl)cccc1NCc1cc(C)on1 | 8.511% | -6.466%
CCn1c(CC2CCN(C(=O)c3cc(CC(C)C)on3)CC2)n[nH]c1=O | 23.08% | -32.97%
CCCNC(=O)c1nc2c(o1)CN(c1ncccn1)C2 | 17.24% | -34.7%
Cc1cnc(C2(C)CCN(Cc3csc(C)n3)CC2)s1 | 10.34% | -1.634%
Cc1ccnc(N2CCCC(c3nccn3C(C)C)C2)n1 (configuration not stated) | 15.62% | -24.87%
CN(Cc1nnc2ccccn12)C(=O)CC1CCCCC1 | 26.76% | -38.66%
CCNC(=O)NC(=O)CNc1cccc(C(=O)c2ccccc2)c1 | 11.71% | -13.54%
CN(C)C(=O)N1CCCn2nc(CNC(=O)CCc3cccs3)cc2C1 | 12.33% | -0.7543%
Cc1ncsc1CCN(C)C(=O)CN1C(=O)OC[C@@H]1c1ccccc1 | 13.19% | -7.177%
Cc1ccc(CN2CC[C@@H](O)[C@@H]2Cc2cnn(C)c2)o1 | 14% | -3.845%
Cc1cccc(OCCC(=O)NCC2CN(C)CCO2)c1C (configuration not stated) | 6.481% | -13.44%
CN1CCC2(CCN(Cc3nccs3)CC2)C1=O | 22.22% | -35.05%
O=C1NCCN1C1CCCN(Cc2coc(-c3cccs3)n2)C1 (configuration not stated) | 13.39% | -8.312%
Cc1n[nH]cc1CNC1CCN(c2cccc(C(F)(F)F)c2)CC1 | 12.77% | -33.01%
Cc1cc(C)n(CC(C)Nc2ncnc3c2CCNC3)n1 (configuration not stated) | 16.39% | -10.64%
CN(C)C(=O)CCCNC(=O)C(c1cccc(F)c1)N(C)C (configuration not stated) | 21.15% | -13.53%
CS(=O)(=O)N1CCc2[nH]cnc2C12CCN(C1CCOCC1)CC2 | 13.7% | -18.69%
CCNc1ncc(C(=O)N[C@H]2CC[C@H](n3cnnc3)CC2)cn1 | 6.452% | -3.966%
Cc1nc(C)n(C2CCCN(C(=O)c3csc(C)n3)C2)n1 (configuration not stated) | 6.14% | -1.325%
CN1CCC(n2nc(CC3CC3)nc2-c2ccc(F)cc2Cl)CC1 | 5.594% | -7.599%
Cc1c[nH]nc1C1CN(c2cnccn2)CCO1 (configuration not stated) | 10.07% | 24.51%
Cc1ccc(-c2cn[nH]c2C2CCCN(c3ccnc(C)n3)C2)cc1 (configuration not stated) | 6.061% | -14.11%
Cn1c(=O)oc2ccc(NC(=O)N3CCOCC3)cc21 | 20% | -19.72%
CC1CCCN(C(=O)Cn2cc(I)cn2)C1 (configuration not stated) | 9.836% | -35.21%
OCCCN1CCc2[nH]nc(C(c3ccccc3)c3ccccc3)c2C1 | 12.68% | -13.28%
Cc1nc(-c2c(-c3ccccc3)ncn2CCCN2CCOCC2)c[nH]1 | 7.895% | -21.69%
CCc1nnc(C(C)N2CCC(NC(=O)C3CCCCC3)CC2)o1 (configuration not stated) | 20% | 2.029%
Cc1cc(CN(C)C(=O)NC(C)Cc2ccco2)no1 (configuration not stated) | 8% | -39.61%
O=C1NCc2ccc(NC(=O)C3CCCN3c3nccs3)cc21 (configuration not stated) | 36.17% | -4.925%
COc1ccc(C)cc1-n1cnnc1CC1CCNCC1 | 21.37% | -28.61%
Cc1noc(C)c1CC(=O)N1CCCC(Cc2ccccn2)C1 (configuration not stated) | 5.797% | 1.006%
CCN(CC)CCNC(=O)CCc1c(C)nn(-c2ccccc2Cl)c1C | 7.921% | -21.2%
O=C(Nc1ccccc1)[C@H]1C[C@@H]2CN(Cc3cccnc3)C[C@H]1O2 | 12% | -12.71%
O=C(c1cnn(-c2ccccc2)c1)N1CCN(c2cnccn2)CC1 | 22.08% | -16.83%
Cc1ccc(CN(Cc2ccncc2)C2CCN(C)CC2)s1 | 8.602% | -21.99%
CN1C[C@H]2CC[C@@H]1CN(C(=O)COCc1nc3cc(F)ccc3[nH]1)C2 | 22.83% | 16.95%
COCCNCc1cc2c(C)cc(C)cc2n2c(=O)n(C)nc12 | 14.43% | 32.91%
CCC(NC1CCN(C(=O)c2ccccc2)CC1)c1cccs1 (configuration not stated) | 10.39% | -16.64%
COCCN1CCCC2(CCN(c3ncc(Cl)cc3Cl)C2)C1=O (configuration not stated) | 18% | -20.32%
CN1CCN(C(=O)NC2CC2)Cc2cccnc21 | 11.32% | 2.024%
CCCc1nnc(N2CCN(c3cccc(C)c3C)CC2)o1 | 13.83% | -25%
CN(C)CC1CN(Cc2coc(-c3ccccc3Cl)n2)CCO1 (configuration not stated) | 20.27% | -20.64%
Cc1occc1C(=O)N1CCC2(CCN(Cc3ccccn3)C2=O)C1 (configuration not stated) | 18.09% | -
COc1ncc(Cl)c(NCc2ccc([S+](C)[O-])cc2)n1 (configuration not stated) | 10.64% | -5.285%
Cc1cc(C)n(Cc2cccc(C(=O)N3CCOCC3(C)C)c2)n1 | 12.86% | -3.998%
O=C1CCCN1c1cccc(CNCc2nc(-c3ccco3)no2)c1 | 15.66% | 4.449%
CC(C)S(=O)(=O)N1C[C@@H](c2ccccc2)[C@H]2[C@H]1CCCCCN2C | 12.77% | 5.067%
Cc1cc(C)n2nc(CC(=O)N[C@H]3C[C@H]4CN(C)CCN4C3)nc2n1 | 16.39% | -32.37%
Cc1nonc1NC(=O)C1SCCc2ccccc21 (configuration not stated) | 8.333% | 2.885%
COc1cccc(C(O)CN2CCN(c3cccc(C)c3)CC2)c1 (configuration not stated) | 24.72% | 0.857%
CCC/N=c1/c(NC(=O)NCCOC)c(O)oc2ccccc12 | 7.08% | -7.465%
O=C1CCOC[C@]2(CN(Cc3ccccc3)C[C@H]2c2cccc(F)c2)N1 | 13.42% | -11.24%
CC(C)OCc1nn(C)c2c1CCN(Cc1ccco1)C2 | 30.26% | -23.37%

Repeated from the top, 7 entries:

| structure | LiHisRS | Pks13 thioesterase |
|---|---|---|
| `CN(C)C1CCCN(C(=O)NCCNC(=O)C2CCCC2)C1` (configuration not stated) | 19.18% | -14.01% |
| `Cc1cc(C(F)(F)F)nn1CCCNC(=O)C1CCN(S(C)(=O)=O)CC1` | 3.371% | 4.929% |
| `CNC(=O)NC(=O)CCSCc1cc(F)cc2cccnc12` | 22.89% | 14.09% |
| `CCSc1ccccc1C(=O)N1CC2(COC(C)(C)OC2)C1` | 12.17% | -36.44% |
| `Cc1cccc(C)c1NC(=O)CC(CN1CCN(C)CC1)C(=O)O` (configuration not stated) | 14.29% | 2.308% |
| `CCN(CCO)C(=O)c1cc(Cn2c(C)nc3ccccc32)[nH]n1` | 15.38% | -25.03% |
| `NC(=O)CN1CCC(c2cccc(Oc3ccccc3)n2)CC1` | 8.511% | -4.759% |

Data taken from ChEMBL document CHEMBL3988442, “University of Dundee, Small-Polar-MMV Screening Library” (2021).